We go through 6 molecules from patent US20030148396A1.

Protein sequences, listed by entry. Tags and fused reporters are not part of them. Lines headed by an entry give the natural chain unless they say otherwise; changes in a name come on top.
UniProt Q04206: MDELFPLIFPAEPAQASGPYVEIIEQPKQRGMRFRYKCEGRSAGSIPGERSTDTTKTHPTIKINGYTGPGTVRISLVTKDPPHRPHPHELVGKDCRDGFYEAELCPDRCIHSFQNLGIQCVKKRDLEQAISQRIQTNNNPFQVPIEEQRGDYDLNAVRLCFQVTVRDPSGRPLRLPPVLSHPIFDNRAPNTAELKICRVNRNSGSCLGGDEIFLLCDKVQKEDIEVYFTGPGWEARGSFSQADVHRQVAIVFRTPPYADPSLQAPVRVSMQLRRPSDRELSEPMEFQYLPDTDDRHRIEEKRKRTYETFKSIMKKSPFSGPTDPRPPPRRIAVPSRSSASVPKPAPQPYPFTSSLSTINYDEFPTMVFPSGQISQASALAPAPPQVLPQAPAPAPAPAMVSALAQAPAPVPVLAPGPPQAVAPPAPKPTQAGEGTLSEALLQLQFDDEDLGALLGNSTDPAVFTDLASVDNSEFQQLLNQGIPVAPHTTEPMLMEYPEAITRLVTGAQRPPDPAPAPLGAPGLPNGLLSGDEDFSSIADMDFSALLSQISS
UniProt P04386: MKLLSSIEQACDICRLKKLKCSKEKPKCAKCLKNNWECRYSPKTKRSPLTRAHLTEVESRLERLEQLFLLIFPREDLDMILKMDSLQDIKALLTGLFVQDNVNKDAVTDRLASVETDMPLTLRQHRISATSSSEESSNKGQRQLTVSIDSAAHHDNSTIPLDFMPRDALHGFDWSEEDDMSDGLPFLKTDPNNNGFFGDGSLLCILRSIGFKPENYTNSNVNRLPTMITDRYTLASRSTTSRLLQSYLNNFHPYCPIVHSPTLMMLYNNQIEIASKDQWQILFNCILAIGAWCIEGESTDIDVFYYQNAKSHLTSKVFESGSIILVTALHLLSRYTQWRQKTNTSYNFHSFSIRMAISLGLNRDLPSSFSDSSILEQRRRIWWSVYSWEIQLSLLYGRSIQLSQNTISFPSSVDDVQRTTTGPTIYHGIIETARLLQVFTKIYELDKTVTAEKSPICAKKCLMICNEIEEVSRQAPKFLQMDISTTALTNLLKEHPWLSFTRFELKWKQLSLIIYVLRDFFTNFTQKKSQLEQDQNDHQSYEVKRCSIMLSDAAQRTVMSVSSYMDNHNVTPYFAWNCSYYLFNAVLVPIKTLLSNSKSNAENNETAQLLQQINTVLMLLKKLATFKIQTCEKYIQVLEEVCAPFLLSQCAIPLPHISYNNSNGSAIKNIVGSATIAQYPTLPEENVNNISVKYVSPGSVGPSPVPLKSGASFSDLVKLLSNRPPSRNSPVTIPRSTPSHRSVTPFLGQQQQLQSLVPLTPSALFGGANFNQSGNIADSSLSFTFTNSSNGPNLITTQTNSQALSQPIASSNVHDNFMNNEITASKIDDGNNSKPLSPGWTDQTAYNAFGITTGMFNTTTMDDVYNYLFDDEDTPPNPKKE

No constants are given. Whether binding was seen depends on the method and setting. For some assays here: In cells and extracts the contact can be indirect. Some binding calls cover weakened binding; strength is not graded here. For some assays here: Tags and fused reporters may be left off the sequences shown.

Assay [1] deals with 35S-methionine-labeled p65 (UniProt Q04206). The experiment in a line: in vitro binding with bacterially expressed fusion proteins.
Assay [2] has the same target. The experiment in a line: GST pull-down on glutathione-sepharose beads, autoradiography of 35S-labeled p65.
The next assay has as its target p65 in transfected cells (UniProt Q04206). The assay is described as follows: co-immunoprecipitation from transfected 293T cells, Western blot with anti-p65. (In general: A western blot detects proteins with antibodies after separation by electrophoresis.)
Assay [3] deals with T1, GAL4 DNA-binding domain fused to human p65 (amino acids 176-405), from pAS2-1-p65 (176-405) (yeast; human) (UniProt P04386+Q04206). The experiment in a line: restated result of the earlier binding experiments.
The target of assay [4] is T1, GAL4 DNA-binding domain fused to human p65 (amino acids 176-405), from pAS2-1-p65 (176-405) (yeast; human). The experiment in a line: yeast two-hybrid screen with p65 (176-405) bait, β-galactosidase and histidine selection.
Assay [5] has the same target. The experiment in a line: yeast two-hybrid screen with p65 (176-405) bait.

B1: GST-RAI fusion protein (protein, not shown: a dimerising Fc or GST)
chain: MWMKDPVARPLSPTRLQPALPPEAQSVPELEEVARVLAEIPRPLKRRGSMEQAPAVALPPTHKKQYQQIISRLFHRHGGPGPGGRSQSCPPSLRDLRPGQGPLLLPHQLPFHRPAPSQSSPPEQPQSMEMRSVLRKAGSPRKARRARLNPLVLLLDAALTGELEVVQQAVKEMNDPSQPNEEGITALHNAICGANYSIVDFLITAGANVNSPDSHGWTPLHCAASCNDTVICMALVQHGAAIFATTLSDGATAFEKCDPYREGYADCATYLADVEQSMGLMNSGAVYALWDYSAEFGDELSFREGESVTVLRRDGPEETDWWWAALHGQEGYVPRNYFGLFPRVKPQRSKV
With B1, the binding entry in assay [1] and in assay [2] was “binds” throughout.

B2: FLAG-RAI (full-length RAI with FLAG epitope tag, from pFLAG-CMV-RAI) (protein, not shown: small tags and cut ends)
chain: B1 chain
As to B2, the binding entry with p65 in transfected cells is “binds”.

B3: RAI partial-length clones in GAL4 transcriptional activation domain vector pACT2 (protein, not shown: large carriers)
chain: B1 chain
As to B3, the binding entry in assay [3] and in assay [4] was “binds” in each case.

B4: IκB-β/Trip9 (two-hybrid library clones in pACT2) (protein, human, UniProt Q15653 1-356, looked up, not shown: large carriers)
chain: MAGVACLGKAADADEWCDSGLGSLGPDAAAPGGPGLGAELGPGLSWAPLVFGYVTEDGDTALHLAVIHQHEPFLDFLLGFSAGTEYMDLQNDLGQTALHLAAILGETSTVEKLYAAGAGLCVAERRGHTALHLACRVGAHACARALLQPRPRRPREAPDTYLAQGPDRTPDTNHTPVALYPDSDLEKEEEESEEDWKLQLEAENYEGHTPLHVAVIHKDVEMVRLLRDAGADLDKPEPTCGRSPLHLAVEAQAADVLELLLRAGANPAARMYGGRTPLGSAMLRPNPILARLLRAHGAPEPEGEDEKSGPCSSSSDSDSGDEGDEYDDIVVHSSRSQTRLPPTPASKPLPDDPRPV
Take B4: the binding entry in assay [5] is listed as “binds”.

B5: 53BP2 (two-hybrid library clones in pACT2) (protein, human, UniProt Q13625 600-1128, looked up, not shown: large carriers)
chain: KPQTVAASSIYSMYTQQQAPGKNFQQAVQSALTKTHTRGPHFSSVYGKPVIAAAQNQQQHPENIYSNSQGKPGSPEPETEPVSSVQENHENERIPRPLSPTKLLPFLSNPYRNQSDADLEALRKKLSNAPRPLKKRSSITEPEGPNGPNIQKLLYQRTTIAAMETISVPSYPSKSASVTASSESPVEIQNPYLHVEPEKEVVSLVPESLSPEDVGNASTENSDMPAPSPGLDYEPEGVPDNSPNLQNNPEEPNPEAPHVLDVYLEEYPPYPPPPYPSGEPEGPGEDSVSMRPPEITGQVSLPPGKRTNLRKTGSERIAHGMRVKFNPLALLLDSSLEGEFDLVQRIIYEVDDPSLPNDEGITALHNAVCAGHTEIVKFLVQFGVNVNAADSDGWTPLHCAASCNNVQVCKFLVESGAAVFAMTYSDMQTAADKCEEMEEGYTQCSQFLYGVQEKMGIMNKGVIYALWDYEPQNDDELPMKEGDCMTIIHREDEDEIEWWWARLNDKEGYVPRNLLGLYPRIKPRQRSLA
With B5, the binding result in assay [5] is given as “binds”.

B6: c-Rel (two-hybrid library clone in pACT2) (protein, human, UniProt Q04864 1-619, looked up, not shown: large carriers)
chain: MASGAYNPYIEIIEQPRQRGMRFRYKCEGRSAGSIPGEHSTDNNRTYPSIQIMNYYGKGKVRITLVTKNDPYKPHPHDLVGKDCRDGYYEAEFGQERRPLFFQNLGIRCVKKKEVKEAIITRIKAGINPFNVPEKQLNDIEDCDLNVVRLCFQVFLPDEHGNLTTALPPVVSNPIYDNRAPNTAELRICRVNKNCGSVRGGDEIFLLCDKVQKDDIEVRFVLNDWEAKGIFSQADVHRQVAIVFKTPPYCKAITEPVTVKMQLRRPSDQEVSESMDFRYLPDEKDTYGNKAKKQKTTLLFQKLCQDHVETGFRHVDQDGLELLTSGDPPTLASQSAGITVNFPERPRPGLLGSIGEGRYFKKEPNLFSHDAVVREMPTGVSSQAESYYPSPGPISSGLSHHASMAPLPSSSWSSVAHPTPRSGNTNPLSSFSTRTLPSNSQGIPPFLRIPVGNDLNASNACIYNNADDIVGMEASSMPSADLYGISDPNMLSNCSVNMMTTSSDSMGETDNPRLLSMNLENPSCNSVLDPRDLRQLHQMSSSSMSAGANSNTTVFVSQSDAFEGSDFSCADNSMINESGPSNSTNPNSHGFVQDSQYSGIGSMQNEQLSDSFPYEFFQV
In the case of B6, the binding entry in assay [5] is listed as “binds”.
